Results: article PMC5903867
Results are given in words; binding and its absence hold for the method and conditions named. Some entries that bind do so weakly or less than the wild type.

How the values were obtained:
ExbB (Escherichia coli) [1] = biological target: T1, ExbB (Escherichia coli) (UniProt P0ABU7); test: SDS-PAGE of washed 2D crystals; 2D crystals in lipid bilayers centrifuged, pellet washed twice with buffer, dissolved in SDS sample buffer and run on a polyacrylamide gel; both purified
T1 sequence: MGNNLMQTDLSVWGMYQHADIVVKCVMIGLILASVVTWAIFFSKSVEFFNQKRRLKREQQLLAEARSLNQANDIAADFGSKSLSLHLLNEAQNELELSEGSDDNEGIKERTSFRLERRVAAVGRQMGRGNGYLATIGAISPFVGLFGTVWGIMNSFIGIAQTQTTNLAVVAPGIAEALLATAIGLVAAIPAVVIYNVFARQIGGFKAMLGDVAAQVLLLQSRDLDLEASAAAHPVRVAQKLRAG

ExbB (Escherichia coli) [2] = biological target: T1, ExbB (Escherichia coli); test: SDS-PAGE and peptide mass fingerprinting of washed 3D crystals; crystals grown at pH 9.0 collected with a loop, washed with crystallization buffer, dissolved in SDS sample buffer; bands digested with trypsin, MALDI TOF/TOF and/or LC MS/MS, Mascot; both purified

B1: ExbD (protein, UniProt P0ABV2 1-141)
chain: MAMHLNENLDDNGEMHDINVTPFIDVMLVLLIIFMVAAPLATVDVKVNLPASTSTPQPRPEKPVYLSVKADNSMFIGNDPVTDETMITALNALTEGKKDTTIFFRADKTVDYETLMKVMDTLHQAGYLKIGLVGEETAKAK
In the case of B1, the binding (ExbB (Escherichia coli) [1]) is reported as “binds” and the binding (ExbB (Escherichia coli) [2]) is reported as “binds”.
